Test results: PubChem BioAssay AID493014 (National Center for Advancing Translational Sciences (NCATS), 2011)
Out of some 340,000 compounds screened, about 170 (0.05%) were called active. This list was built around the results that the source calls inconclusive (neither active nor inactive); the mix of calls is not that of the screen. Calls come from the whole dose curve; as a rule, active = well fitted inhibition curve with a large enough effect in the signal ratio, with a control signal flat (not every such curve was filed as active); inconclusive = small, poorly fitted or top-dose-only effect, or effect the other way, or a change in a side signal; inactive = flat fitted curve, though single readings scatter; the % refers to the signal ratio. Potencies beside an inconclusive call are fits to weak or partial responses and may not hold up.

assay: qHTS Assay to Find Inhibitors of Chronic Active B-Cell Receptor Signaling; conditions: ABC-DLBCL IkBa-CBG/CBR reporter, luminescence ratio (green luciferase fused to IkBa over red control in TMD8 lymphoma cells), 4 h; activity change, negative = inhibition: at 46.1 µM (top of the series) unless noted;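 for activity change, negative = inhibition: plate controls were basal doxycycline-induced cells for no effect and cells given 10 µM MG132 for full effect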
In short: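 Cell line TMD8 (human ABC DLBCL), stably expressing tet-inducible CBG68-IkBa fusion and CBR; IMDM/0.5% FBS; cpd up to 46 uM; dox induction, 4 h, 37C/5% CO2; dual luminescence; green/red ratio; MG132 control.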
Potency is the fitted concentration of half-maximal effect.

Which activity change, negative = inhibition does the source give for Cc1cc(-n2c(C)cc(C(=O)CSc3[nH]c(=O)cc(C(F)(F)F)c3C#N)c2C)no1 here?
Its activity change, negative = inhibition is inconclusive: -12.2%.

For COc1ccc(C(=O)NCc2ccc3c(c2)CCN3C(C)=O)c(OC)c1, which activity change, negative = inhibition is on record?
The activity change, negative = inhibition was inconclusive: 8.74%.

Which activity change, negative = inhibition does the source give for O=C(c1ccc(OC2CCN(CCc3ccccc3)CC2)cc1)N1CCCC(CO)C1 (stereo not given) here?
The activity change, negative = inhibition was inconclusive: -20.4%.

Which Potency does the source give for CCOC(=O)c1c(C)n(-c2ccc(C)cc2)c2ccc(OCC(O)CNCC3CCCO3)cc12 (stereo not given) here?
Its Potency is inconclusive: 15.8 µM [falling, single point].

With COc1ccc(CN2CCCCC2C(=O)Nc2ccc(OC)c(OC)c2)cc1OC (stereo not given) as the compound, how does the activity change, negative = inhibition read?
The activity change, negative = inhibition was inconclusive: -4.76%.

For CC(C)(C)NC(=O)C(c1ccc(Cl)cc1)N(Cc1ccco1)C(=O)CCl (stereo not given), which “activity change, negative = inhibition” value is on record?
The value was inactive: -0.993%.

Which activity change, negative = inhibition does the source give for CSCCC(=O)N1CCCC(CNC(=O)c2ccccc2Cl)C1 (stereo not given) here?
Its activity change, negative = inhibition is inconclusive: -17.8%.

Which “activity change, negative = inhibition” value does the source give for COc1ccc(S(=O)(=O)N2CCOCC2)cc1NC(=O)CSc1nnnn1C1CC1 here?
Its value is inactive: -9.44%.

Which Potency does the source give for NC(=O)N/N=C/c1ccc2cccc(OCc3ccccc3)c2n1 here?
Its Potency is inconclusive: 17.8 µM [falling, partial curve, poor fit].

With Cc1cccc(C(=O)NC(=S)Nc2ccc(Cc3ccncc3)cc2)c1 as the compound, how does the activity change, negative = inhibition read?
Its activity change, negative = inhibition is inconclusive: -18.9%.

With CCN(Cc1ccccc1)c1ncnc2c1cnn2-c1ccc(F)cc1 as the compound, how does the activity change, negative = inhibition read?
Its activity change, negative = inhibition is inconclusive: 19.7%.

Which Potency does the source give for COc1ccccc1-c1nnc(NC(=O)c2ccc3ncsc3c2)o1 here?
The Potency was inconclusive: 4.11 µM [falling, partial curve].

With CCCC12CN3CCN(CC(C3)/C1=N\NC(=O)c1ccccc1N)C2 as the compound, how does the Potency read?
The Potency was inconclusive: 29.1 µM [falling, partial curve].

For COc1cccc(Nc2nc(-c3ccccc3)nc3ccccc23)c1, which activity change, negative = inhibition is on record?
Its activity change, negative = inhibition is inconclusive: 7.81%.

With Cc1ccc(OCC(O)Cn2c(N)nc3c2c(=O)n(C)c(=O)n3C)cc1 (stereo not given) as the compound, how does the activity change, negative = inhibition read?
The activity change, negative = inhibition was inconclusive: 0.829%.

With O=C1OCCN1/N=C/c1ccc([N+](=O)[O-])o1 as the compound, how does the “activity change, negative = inhibition” value read?
The value was inactive: -3.49%.

Which Potency does the source give for O=C1CN(C(=O)COC(=O)c2ccccc2NCc2ccco2)c2ccccc2N1 here?
Its Potency is inconclusive: 14.6 µM [falling, partial curve, poor fit].

Which activity change, negative = inhibition does the source give for O=C(N/N=C\c1cccnc1)c1ccc(Cl)s1 here?
Its activity change, negative = inhibition is inconclusive: -11.9%.

For COCCNC(=O)CSc1nc2ccccc2c(=O)n1CCC(=O)NCCc1ccc(OC)c(OC)c1, which activity change, negative = inhibition is on record?
The activity change, negative = inhibition was inconclusive: 8.33%.

Which “activity change, negative = inhibition” value does the source give for CC(C)NC(=O)c1n[nH]c(=O)c2ccccc12 here?
Its value is inactive: 4.53%.

With N/C(=N\OC(=O)c1ccc([N+](=O)[O-])cc1)c1cccnc1 as the compound, how does the activity change, negative = inhibition read?
The activity change, negative = inhibition was inconclusive: 9.95%.

With CCOc1ccc(-n2cc(C(=O)N3CCC(C)CC3)c3cc(OC)c(OC)cc3c2=O)cc1 as the compound, how does the Potency read?
Its Potency is inconclusive: 12.6 µM [falling, partial curve, poor fit].

For O=Cc1c(N2CCN(c3ccccc3)CC2)nc2ccccn2c1=O, which activity change, negative = inhibition is on record?
Its activity change, negative = inhibition is inconclusive: -7.89%.

For COc1cccc(-c2sc3cc(OC)c(OC)cc3c2-c2ccc(OCCN3CCCCC3)cc2)c1, which activity change, negative = inhibition is on record?
The activity change, negative = inhibition was inconclusive: -14.5%.

With COc1cc(C2C3=C(CC(c4ccco4)CC3=O)Nc3ccccc3N2C(C)=O)cc(OC)c1OC (stereo not given) as the compound, how does the “activity change, negative = inhibition” value read?
The value was inactive: -1.43%.

For Cc1ccc2cc3cc(C(=O)N4CCCCC4C)oc3nc2c1 (stereo not given), which activity change, negative = inhibition is on record?
The activity change, negative = inhibition was inconclusive: -15.4%.

For CCOc1ccccc1C1C(C(=O)Nc2ccccc2)=C(C)Nc2nc(SCC(=O)c3ccc(C)cc3)nn21 (stereo not given), which activity change, negative = inhibition is on record?
Its activity change, negative = inhibition is inconclusive: -0.477%.

Which activity change, negative = inhibition does the source give for O=C1c2ccccc2NC(c2ccccc2O)N1O (stereo not given) here?
Its activity change, negative = inhibition is inconclusive: 1.17%.

With CCCCNC(=O)c1nnn(-c2ccccc2)c1N as the compound, how does the Potency read?
Its Potency is inconclusive: 6.51 µM [falling, single point].

With Cc1cc(C)n2nc(S(=O)(=O)NCCc3ccccc3)nc2n1 as the compound, how does the activity change, negative = inhibition read?
Its activity change, negative = inhibition is inconclusive: 5.61%.

Which Potency does the source give for Cc1onc(-c2ccccc2Cl)c1C(=O)OCn1nnc2ccccc2c1=O here?
The Potency was inconclusive: 29.1 µM [falling, single point].

For O=c1[nH]c(C2CCN(S(=O)(=O)c3ccc(C(F)(F)F)cc3)CC2)nc2c1nnn2Cc1cccc(F)c1, which “activity change, negative = inhibition” value is on record?
Its value is inactive: 2.08%.

For COC(=O)CSc1nc(Cc2ccccc2)nc2ccccc12, which Potency is on record?
Its Potency is inconclusive: 17.8 µM [falling, single point].

With CC1Cc2ccccc2N1C(=O)CSc1nn2c(=O)c(C(C)(C)C)nnc2s1 (stereo not given) as the compound, how does the activity change, negative = inhibition read?
Its activity change, negative = inhibition is inconclusive: 13.6%.

For CC1CCCN(C(=O)CCCn2c(=S)[nH]c3ccccc3c2=O)C1 (stereo not given), which Potency is on record?
The Potency was inconclusive: 23.1 µM [falling, partial curve].

With CCOc1cccc(CN(CC)CC2CCCN(CCc3cccc(OC)c3)C2)c1O (stereo not given) as the compound, how does the activity change, negative = inhibition read?
Its activity change, negative = inhibition is inconclusive: -16.2%.

With COc1ccc(CCN(C)CC(=O)Nc2cc(C)nc3ccccc23)cc1OC as the compound, how does the Potency read?
The Potency was inconclusive: 3.16 µM [falling, partial curve, poor fit].

With N#Cc1cccc(N=c2ssnc2Cl)c1 as the compound, how does the activity change, negative = inhibition read?
The activity change, negative = inhibition was inconclusive: -16.5%.

With CCCS(=O)(=O)c1c(S(=O)(=O)CCC)c2cnccn2c1C(=O)c1ccc(OC)cc1 as the compound, how does the “activity change, negative = inhibition” value read?
Its value is inactive: 0.711%.

Which Potency does the source give for Cc1oc(C(C)(C)C)cc1C(=O)Nc1ccc(C(=O)O)cc1 here?
The Potency was inconclusive: 35.5 µM [falling, partial curve, poor fit].

With CCOC(=O)c1c(C)[nH]c(C)c1C(=O)COC(=O)/C=C/c1ccc(OC(F)F)cc1 as the compound, how does the activity change, negative = inhibition read?
Its activity change, negative = inhibition is inconclusive: 8.54%.

With CC(Sc1ccccc1)C(=O)NN=C1CCCCCCC1 (stereo not given) as the compound, how does the activity change, negative = inhibition read?
The activity change, negative = inhibition was inconclusive: 10.3%.

With COc1ccc(C(C)NCCC(c2ccc(OC(C)C)cc2)c2ccccc2OC)cc1 (stereo not given) as the compound, how does the activity change, negative = inhibition read?
The activity change, negative = inhibition was inconclusive: -7.12%.

With COc1ccc(OC(C)C(=O)N(C)Cc2nc(-c3cccc(C)c3)no2)cc1 (stereo not given) as the compound, how does the activity change, negative = inhibition read?
Its activity change, negative = inhibition is inconclusive: 0.0719%.

For COc1ccc(Cl)cc1NC(=S)N1CCN(c2ccccn2)CC1, which activity change, negative = inhibition is on record?
The activity change, negative = inhibition was inconclusive: 11.2%.

With CC(C)(C)CC(=O)NCCc1csc(-c2ccccc2)n1 as the compound, how does the activity change, negative = inhibition read?
The activity change, negative = inhibition was inconclusive: -2.5%.

Which Potency does the source give for O=C(Nc1ccc(F)cc1)Nc1ccccc1C(=O)NCCN1CCNC1=O here?
The Potency was inconclusive: 11.2 µM [falling, partial curve].

For NS(=O)(=O)c1ccc(NC(=O)CSc2nnc(-c3ccc(O)cc3)o2)cc1, which activity change, negative = inhibition is on record?
Its activity change, negative = inhibition is inconclusive: -85%.

With Cc1c(NS(=O)(=O)c2cc(C(=O)NC(C)c3ccccc3)ccc2Cl)c(=O)n(-c2ccccc2)n1C (stereo not given) as the compound, how does the “activity change, negative = inhibition” value read?
The value was inactive: 5.29%.

For CSc1n[nH]c(N)c1S(=O)(=O)c1ccc(Cl)cc1, which “activity change, negative = inhibition” value is on record?
Its value is inactive: -10.7%.
